From article PMC9663589, “Anti-tumor effects of P-LPK-CPT, a peptide-camptothecin conjugate, in colorectal cancer” (Communications Biology, 2022) come the findings set out here.

By UniProt entry, the sequences of proteins in these tests, tags left out. Residues count along the entry.
UniProt P54289, residues 25-1103: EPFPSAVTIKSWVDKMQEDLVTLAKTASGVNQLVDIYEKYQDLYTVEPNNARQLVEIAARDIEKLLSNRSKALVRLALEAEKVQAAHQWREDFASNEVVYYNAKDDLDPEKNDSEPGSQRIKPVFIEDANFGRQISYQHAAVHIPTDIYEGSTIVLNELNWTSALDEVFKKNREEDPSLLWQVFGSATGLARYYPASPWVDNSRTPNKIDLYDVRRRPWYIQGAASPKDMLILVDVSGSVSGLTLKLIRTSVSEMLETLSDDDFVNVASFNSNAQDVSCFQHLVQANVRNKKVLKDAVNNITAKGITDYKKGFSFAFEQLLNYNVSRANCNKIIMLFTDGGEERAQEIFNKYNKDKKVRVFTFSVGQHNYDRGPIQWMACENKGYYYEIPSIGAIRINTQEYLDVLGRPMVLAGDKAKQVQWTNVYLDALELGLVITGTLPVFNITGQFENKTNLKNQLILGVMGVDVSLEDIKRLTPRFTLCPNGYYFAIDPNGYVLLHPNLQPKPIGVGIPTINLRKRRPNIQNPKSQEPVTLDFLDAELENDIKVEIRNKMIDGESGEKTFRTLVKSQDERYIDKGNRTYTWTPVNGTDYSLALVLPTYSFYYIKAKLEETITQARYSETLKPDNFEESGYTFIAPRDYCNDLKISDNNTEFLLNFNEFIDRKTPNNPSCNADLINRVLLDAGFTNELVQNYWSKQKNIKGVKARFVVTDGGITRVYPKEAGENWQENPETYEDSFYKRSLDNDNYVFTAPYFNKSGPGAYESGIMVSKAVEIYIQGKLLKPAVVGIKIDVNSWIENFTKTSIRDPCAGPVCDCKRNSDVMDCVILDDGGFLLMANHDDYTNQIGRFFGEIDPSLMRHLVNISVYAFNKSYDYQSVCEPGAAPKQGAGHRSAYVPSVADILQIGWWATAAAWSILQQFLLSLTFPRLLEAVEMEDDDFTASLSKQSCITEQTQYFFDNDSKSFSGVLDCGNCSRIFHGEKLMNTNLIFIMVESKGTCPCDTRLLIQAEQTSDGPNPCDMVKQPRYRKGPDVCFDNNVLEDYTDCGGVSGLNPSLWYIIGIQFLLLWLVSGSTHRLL

These are yes or no findings as the source states them, for the method shown. Binding seen in cells or lysates may run through a third protein. A yes stands for co-enrichment or nearness to the bait. Other partners may have been found.

For this assay, the target named is T1, Biotin-P-LPK.
T1 sequence (peptide, biotin (position not stated)): LPKTVSSDMSLN
As to the kind of experiment: affinity purification with mass spectrometry; 50 ug/ml Biotin-P-LPK (Biotin-P-CON as control) incubated with HCT116 cells at 37 °C for 2 h, cells lysed, captured on magnetic beads; silver-stained bands cut out and identified by mass spectrometry; only the target purified.

As to CACNA2D1 (from UniProt P54289 25-1103), the binding entry is listed as “binds”.

B1: SLC1A5 (endogenous, HCT116 cells) (receptor, UniProt Q15758 1-541)
chain: MVADPPRDSKGLAAAEPTANGGLALASIEDQGAAAGGYCGSRDQVRRCLRANLLVLLTVVAVVAGVALGLGVSGAGGALALGPERLSAFVFPGELLLRLLRMIILPLVVCSLIGGAASLDPGALGRLGAWALLFFLVTTLLASALGVGLALALQPGAASAAINASVGAAGSAENAPSKEVLDSFLDLARNIFPSNLVSAAFRSYSTTYEERNITGTRVKVPVGQEVEGMNILGLVVFAIVFGVALRKLGPEGELLIRFFNSFNEATMVLVSWIMWYAPVGIMFLVAGKIVEMEDVGLLFARLGKYILCCLLGHAIHGLLVLPLIYFLFTRKNPYRFLWGIVTPLATAFGTSSSSATLPLMMKCVEENNGVAKHISRFILPIGATVNMDGAALFQCVAAVFIAQLSQQSLDFVKIITILVTATASSVGAAGIPAGGVLTLAIILEAVNLPVDHISLILAVDWLVDRSCTVLNVEGDALGAGLLQNYVDRTESRSTEPELIQVKSELPLDPLPVPTEEGNPLLKHYRGPAGDATVASEKESVM
For B1, the binding result is given as “binds”.
